Experiment [1] concerns the target T1, sodium iodide symporter (NIS) (UniProt Q92911).
T1 sequence: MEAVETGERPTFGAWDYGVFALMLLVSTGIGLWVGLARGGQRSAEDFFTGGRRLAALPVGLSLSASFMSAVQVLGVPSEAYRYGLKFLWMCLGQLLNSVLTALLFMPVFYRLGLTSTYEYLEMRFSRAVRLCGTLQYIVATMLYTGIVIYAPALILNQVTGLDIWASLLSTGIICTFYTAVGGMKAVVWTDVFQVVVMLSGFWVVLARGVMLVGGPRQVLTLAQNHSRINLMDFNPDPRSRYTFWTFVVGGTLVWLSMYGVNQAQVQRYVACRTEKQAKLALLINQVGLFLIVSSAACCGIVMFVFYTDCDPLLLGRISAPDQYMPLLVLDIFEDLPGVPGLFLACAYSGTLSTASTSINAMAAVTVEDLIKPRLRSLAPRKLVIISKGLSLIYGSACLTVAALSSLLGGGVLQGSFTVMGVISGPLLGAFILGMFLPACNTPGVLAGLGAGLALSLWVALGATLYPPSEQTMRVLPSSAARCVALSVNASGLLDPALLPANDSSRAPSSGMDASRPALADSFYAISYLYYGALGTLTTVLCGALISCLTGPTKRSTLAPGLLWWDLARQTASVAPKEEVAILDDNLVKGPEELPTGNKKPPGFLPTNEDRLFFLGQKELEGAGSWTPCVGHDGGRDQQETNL
The experiment can be described thus: co-IP; cells, tags and conditions not stated.

Experiment [2] addresses T1, sodium iodide symporter (NIS). The experiment in a line: proximity ligation; cells and conditions not stated.

No constants are given. Whether binding was seen depends on the method and setting. Binding seen in cells or lysates may run through a third protein. Some binding calls cover weakened binding; strength is not graded here.

Take VCP (from UniProt P55072 1-806): the binding result in experiment [1] and in experiment [2] was “binds” throughout.

Values taken from publication PMC6862723.
